Source: the supplement of paper PMC10849652
The list shows a part of the results.

Chains of the proteins cited; added tags and fusions are not shown. Lines headed by an entry give the natural chain unless they say otherwise; changes in a name come on top.
UniProt Q15173: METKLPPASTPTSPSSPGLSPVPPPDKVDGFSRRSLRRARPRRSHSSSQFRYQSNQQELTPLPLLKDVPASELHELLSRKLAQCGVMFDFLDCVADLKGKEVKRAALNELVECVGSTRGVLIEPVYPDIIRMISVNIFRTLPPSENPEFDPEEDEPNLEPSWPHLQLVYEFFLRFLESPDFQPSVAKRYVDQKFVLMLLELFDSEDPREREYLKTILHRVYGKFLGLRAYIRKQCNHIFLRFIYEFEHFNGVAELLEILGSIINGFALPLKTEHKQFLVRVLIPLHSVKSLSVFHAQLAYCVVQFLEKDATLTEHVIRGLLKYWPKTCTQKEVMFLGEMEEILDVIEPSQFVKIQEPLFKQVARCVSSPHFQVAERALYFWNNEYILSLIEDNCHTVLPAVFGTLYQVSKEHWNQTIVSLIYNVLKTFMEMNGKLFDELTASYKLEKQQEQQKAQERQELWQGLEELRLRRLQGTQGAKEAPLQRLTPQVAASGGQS
UniProt P31321, whole entry, looked up: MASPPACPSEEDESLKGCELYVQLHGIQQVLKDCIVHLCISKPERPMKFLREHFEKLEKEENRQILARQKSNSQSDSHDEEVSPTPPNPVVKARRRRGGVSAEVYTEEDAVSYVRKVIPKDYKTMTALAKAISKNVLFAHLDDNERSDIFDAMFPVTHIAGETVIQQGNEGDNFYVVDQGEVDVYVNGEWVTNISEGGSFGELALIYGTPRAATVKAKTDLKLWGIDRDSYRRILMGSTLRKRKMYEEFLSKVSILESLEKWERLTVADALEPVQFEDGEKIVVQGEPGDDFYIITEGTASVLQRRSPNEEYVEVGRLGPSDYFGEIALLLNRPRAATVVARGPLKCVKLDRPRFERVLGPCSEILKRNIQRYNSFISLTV
UniProt P13727: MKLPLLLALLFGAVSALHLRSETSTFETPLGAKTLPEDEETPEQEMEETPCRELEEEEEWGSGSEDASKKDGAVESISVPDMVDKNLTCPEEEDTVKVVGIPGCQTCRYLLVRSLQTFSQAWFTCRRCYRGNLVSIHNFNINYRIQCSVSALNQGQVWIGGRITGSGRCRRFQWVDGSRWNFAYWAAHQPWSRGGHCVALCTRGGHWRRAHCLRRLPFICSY
UniProt P50897: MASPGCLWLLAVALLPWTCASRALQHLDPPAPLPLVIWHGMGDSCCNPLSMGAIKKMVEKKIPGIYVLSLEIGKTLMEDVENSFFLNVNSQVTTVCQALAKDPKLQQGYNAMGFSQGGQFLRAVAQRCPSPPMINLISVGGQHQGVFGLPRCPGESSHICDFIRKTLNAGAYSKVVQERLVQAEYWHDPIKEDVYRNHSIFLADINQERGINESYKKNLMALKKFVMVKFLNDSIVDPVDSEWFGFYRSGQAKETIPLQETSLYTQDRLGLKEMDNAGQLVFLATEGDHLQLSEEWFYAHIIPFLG
UniProt O14974: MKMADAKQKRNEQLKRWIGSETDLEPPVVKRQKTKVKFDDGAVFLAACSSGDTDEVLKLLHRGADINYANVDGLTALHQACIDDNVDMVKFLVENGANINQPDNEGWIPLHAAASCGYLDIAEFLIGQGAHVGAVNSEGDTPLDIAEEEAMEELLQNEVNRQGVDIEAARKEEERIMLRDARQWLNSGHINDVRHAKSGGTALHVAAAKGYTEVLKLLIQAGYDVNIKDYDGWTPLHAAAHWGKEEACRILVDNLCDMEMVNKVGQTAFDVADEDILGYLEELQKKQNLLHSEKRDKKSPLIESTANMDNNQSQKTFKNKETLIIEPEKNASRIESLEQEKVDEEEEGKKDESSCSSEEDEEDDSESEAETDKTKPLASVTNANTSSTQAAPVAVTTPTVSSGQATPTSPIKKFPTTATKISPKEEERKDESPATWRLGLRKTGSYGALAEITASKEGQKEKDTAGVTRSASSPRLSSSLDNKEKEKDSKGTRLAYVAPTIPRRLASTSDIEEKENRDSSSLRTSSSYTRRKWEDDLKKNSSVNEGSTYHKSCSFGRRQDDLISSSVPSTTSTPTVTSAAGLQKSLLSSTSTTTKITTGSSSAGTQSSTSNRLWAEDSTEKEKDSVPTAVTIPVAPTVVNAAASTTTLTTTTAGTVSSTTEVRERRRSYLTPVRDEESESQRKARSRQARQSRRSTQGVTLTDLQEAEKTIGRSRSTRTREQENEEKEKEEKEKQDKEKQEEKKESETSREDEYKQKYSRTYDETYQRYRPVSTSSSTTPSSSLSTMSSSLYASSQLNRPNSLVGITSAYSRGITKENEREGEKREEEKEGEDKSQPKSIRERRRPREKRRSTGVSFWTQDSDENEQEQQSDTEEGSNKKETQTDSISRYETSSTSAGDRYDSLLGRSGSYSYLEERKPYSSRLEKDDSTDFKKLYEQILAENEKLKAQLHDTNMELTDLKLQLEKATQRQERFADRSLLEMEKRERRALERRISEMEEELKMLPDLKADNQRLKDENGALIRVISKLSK
UniProt O43741: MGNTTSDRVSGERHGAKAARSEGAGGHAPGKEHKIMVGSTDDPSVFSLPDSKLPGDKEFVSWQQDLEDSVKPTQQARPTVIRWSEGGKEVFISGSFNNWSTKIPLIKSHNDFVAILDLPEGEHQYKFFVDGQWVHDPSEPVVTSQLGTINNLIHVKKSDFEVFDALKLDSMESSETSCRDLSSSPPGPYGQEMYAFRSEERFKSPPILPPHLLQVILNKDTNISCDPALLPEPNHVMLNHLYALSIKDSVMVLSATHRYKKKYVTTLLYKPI
UniProt Q9BSG0: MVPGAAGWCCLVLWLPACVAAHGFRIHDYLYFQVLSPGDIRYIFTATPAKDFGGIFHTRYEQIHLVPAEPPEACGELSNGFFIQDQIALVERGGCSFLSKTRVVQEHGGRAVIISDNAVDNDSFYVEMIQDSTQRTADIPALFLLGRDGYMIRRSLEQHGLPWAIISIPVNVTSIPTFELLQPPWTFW
UniProt P13861, whole entry, looked up: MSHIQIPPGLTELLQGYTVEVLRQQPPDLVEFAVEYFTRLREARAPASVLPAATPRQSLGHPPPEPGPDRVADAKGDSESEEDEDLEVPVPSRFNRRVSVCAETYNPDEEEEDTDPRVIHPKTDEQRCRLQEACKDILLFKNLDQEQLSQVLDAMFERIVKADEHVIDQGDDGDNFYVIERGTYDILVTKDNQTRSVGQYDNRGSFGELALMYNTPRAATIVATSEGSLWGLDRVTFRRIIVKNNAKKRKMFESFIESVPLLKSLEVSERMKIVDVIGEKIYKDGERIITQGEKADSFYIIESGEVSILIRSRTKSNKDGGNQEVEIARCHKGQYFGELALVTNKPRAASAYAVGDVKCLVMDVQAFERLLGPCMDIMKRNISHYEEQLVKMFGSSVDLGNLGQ
UniProt Q9ULJ8: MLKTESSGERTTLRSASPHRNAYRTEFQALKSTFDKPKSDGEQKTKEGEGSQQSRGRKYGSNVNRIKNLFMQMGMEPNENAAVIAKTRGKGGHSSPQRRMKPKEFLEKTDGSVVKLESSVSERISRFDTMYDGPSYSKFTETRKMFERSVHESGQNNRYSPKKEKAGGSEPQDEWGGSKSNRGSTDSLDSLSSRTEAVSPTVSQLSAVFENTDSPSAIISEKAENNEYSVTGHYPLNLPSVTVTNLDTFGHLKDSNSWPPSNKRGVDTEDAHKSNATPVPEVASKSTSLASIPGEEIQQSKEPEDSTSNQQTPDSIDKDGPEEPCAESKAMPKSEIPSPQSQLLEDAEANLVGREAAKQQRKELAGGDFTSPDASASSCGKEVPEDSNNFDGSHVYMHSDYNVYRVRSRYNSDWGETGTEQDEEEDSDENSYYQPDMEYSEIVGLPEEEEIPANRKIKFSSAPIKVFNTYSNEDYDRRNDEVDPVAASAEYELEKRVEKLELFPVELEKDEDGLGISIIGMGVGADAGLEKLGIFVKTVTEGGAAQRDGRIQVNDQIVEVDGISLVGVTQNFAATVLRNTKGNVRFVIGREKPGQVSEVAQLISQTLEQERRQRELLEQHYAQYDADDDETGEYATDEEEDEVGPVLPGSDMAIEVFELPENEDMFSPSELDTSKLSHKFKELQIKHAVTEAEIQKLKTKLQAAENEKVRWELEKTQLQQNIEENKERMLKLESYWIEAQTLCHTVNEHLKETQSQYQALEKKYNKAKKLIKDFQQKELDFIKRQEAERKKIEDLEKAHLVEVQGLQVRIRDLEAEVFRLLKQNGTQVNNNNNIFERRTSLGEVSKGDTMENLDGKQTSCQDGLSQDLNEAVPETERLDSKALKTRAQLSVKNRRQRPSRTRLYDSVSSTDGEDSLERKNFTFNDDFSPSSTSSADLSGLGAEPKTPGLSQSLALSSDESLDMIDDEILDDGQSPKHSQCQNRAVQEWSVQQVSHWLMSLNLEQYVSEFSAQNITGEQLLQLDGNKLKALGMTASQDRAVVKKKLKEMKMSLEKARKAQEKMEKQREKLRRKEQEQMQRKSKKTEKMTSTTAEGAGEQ
UniProt Q13362, whole entry, looked up: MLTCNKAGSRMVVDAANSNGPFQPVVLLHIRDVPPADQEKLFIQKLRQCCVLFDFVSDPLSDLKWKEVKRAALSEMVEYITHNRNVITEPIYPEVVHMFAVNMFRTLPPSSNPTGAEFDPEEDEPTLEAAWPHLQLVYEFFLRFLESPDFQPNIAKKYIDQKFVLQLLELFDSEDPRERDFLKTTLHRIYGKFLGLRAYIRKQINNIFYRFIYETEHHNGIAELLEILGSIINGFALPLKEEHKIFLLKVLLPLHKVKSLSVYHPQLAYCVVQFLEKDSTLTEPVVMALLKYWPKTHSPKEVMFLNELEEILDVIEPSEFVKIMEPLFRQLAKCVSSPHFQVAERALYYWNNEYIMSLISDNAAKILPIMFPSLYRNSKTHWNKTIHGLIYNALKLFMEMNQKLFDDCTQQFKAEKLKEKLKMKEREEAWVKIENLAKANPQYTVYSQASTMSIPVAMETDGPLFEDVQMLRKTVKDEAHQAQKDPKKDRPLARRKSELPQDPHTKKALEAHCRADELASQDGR
UniProt P50336: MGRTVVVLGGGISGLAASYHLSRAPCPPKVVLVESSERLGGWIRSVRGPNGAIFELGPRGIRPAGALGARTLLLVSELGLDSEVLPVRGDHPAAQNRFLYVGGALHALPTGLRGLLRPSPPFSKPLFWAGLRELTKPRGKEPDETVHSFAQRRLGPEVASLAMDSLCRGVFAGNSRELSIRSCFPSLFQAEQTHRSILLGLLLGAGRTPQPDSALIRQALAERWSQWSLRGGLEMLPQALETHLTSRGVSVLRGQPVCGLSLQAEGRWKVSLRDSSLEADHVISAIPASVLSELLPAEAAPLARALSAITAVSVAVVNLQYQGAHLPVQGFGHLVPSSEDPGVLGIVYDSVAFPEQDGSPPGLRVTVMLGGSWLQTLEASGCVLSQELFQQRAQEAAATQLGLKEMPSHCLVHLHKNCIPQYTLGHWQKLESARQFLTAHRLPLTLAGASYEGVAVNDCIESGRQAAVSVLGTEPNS
UniProt P42785: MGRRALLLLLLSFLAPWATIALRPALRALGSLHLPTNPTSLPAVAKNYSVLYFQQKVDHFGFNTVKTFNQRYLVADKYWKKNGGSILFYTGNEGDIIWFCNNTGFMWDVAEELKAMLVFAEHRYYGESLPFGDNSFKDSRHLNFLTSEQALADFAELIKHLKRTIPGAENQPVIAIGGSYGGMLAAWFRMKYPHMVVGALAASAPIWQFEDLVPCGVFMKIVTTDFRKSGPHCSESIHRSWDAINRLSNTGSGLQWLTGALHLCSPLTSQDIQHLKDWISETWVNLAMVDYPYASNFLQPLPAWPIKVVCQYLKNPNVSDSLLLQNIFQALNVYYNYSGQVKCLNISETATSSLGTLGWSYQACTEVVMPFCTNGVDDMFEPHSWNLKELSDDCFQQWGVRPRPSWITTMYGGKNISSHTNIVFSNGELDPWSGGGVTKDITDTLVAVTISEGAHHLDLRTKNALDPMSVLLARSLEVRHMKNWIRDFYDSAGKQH
UniProt P54619: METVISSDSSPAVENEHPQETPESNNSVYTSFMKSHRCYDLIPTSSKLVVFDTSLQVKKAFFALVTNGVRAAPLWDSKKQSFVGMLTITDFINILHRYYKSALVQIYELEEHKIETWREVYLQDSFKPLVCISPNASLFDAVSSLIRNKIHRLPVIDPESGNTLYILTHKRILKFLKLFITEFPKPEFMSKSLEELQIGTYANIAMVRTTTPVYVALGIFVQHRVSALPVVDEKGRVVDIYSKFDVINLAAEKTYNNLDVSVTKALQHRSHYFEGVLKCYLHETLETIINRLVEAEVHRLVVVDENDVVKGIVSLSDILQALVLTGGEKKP
UniProt Q9Y478: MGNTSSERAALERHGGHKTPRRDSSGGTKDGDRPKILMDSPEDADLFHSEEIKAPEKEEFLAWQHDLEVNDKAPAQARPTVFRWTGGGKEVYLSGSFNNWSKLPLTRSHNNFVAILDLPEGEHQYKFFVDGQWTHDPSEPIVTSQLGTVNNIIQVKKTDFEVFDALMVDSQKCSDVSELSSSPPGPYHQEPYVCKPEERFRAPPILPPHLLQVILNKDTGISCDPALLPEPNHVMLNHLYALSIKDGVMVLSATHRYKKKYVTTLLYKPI

What was measured:
Test in all cases: log2 fold change, soluble protein after heating vs DMSO (PISA); higher = thermal stabilisation; K562 cells, 10 uM, 30 min; active = over 0.2 and 3.5 SD of the protein, either way, in both replicates (recomputed)
[1] = compound: CC[C@@H]1C(=O)N(C)c2cnc(Nc3ccc(C(=O)NC4CCN(C)CC4)cc3OC)nc2N1C1CCCC1
Summary of the method: (§1)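 K562 cells at 2×10^6 cells/mL were treated with 10 μM compound for 30 min. Aliquots were heated for 3 min across 48°C-58°C, pooled, and extracted in PBS with 0.5% NP-40 at 4°C; soluble protein was the supernatant after 21,000xg for 90 min. Soluble protein was quantified by TMTpro 16plex LC-MS/MS with channel sums equalised, and reported as log2 fold change in thermal stability against DMSO controls, with values from duplicates.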

volasertib = compound: CC[C@@H]1C(=O)N(C)c2cnc(Nc3ccc(C(=O)N[C@H]4CC[C@H](N5CCN(CC6CC6)CC5)CC4)cc3OC)nc2N1C(C)C [volasertib]
Summary of the method: as §1

[2] = compound: CC[C@H](C)N1C=C(C2=C(C=C(C=C21)C3=CN=C(C=C3)N4CCNCC4)C(=O)NCC5=C(C=C(NC5=O)C)C)C
Summary of the method: as §1

[3] = compound: CCn1cc(-c2ccnc3[nH]c(-c4cccc(CN(C)C)c4)cc23)c(-c2ccc(NC(=O)N(C)C)cc2)n1
Summary of the method: as §1

[4] = compound: CN(C)CC(=O)Nc1ccc2[nH]c(=O)c3ccccc3c2c1
Summary of the method: as §1

[5] = compound: CN1C2=C(C3=C1C(=O)N(N=C3)CC4=CC(=CC=C4)N)SC(=C2)S(=O)C
Summary of the method: as §1

[6] = compound: CN1CCC(CNc2ccc3ncc(-c4cccc(OC(F)(F)F)c4)n3n2)CC1
Summary of the method: as §1

saracatinib = compound: CN1CCN(CCOc2cc(OC3CCOCC3)c3c(Nc4c(Cl)ccc5c4OCO5)ncnc3c2)CC1 [saracatinib]
Summary of the method: as §1

[7] = compound: CNC(=O)C1=CC=CC=C1NC2=NC(=NC=C2Cl)NC3=C(C=C(C=C3)N4CCOCC4)OC
Summary of the method: as §1

defactinib = compound: CNC(=O)c1ccc(Nc2ncc(C(F)(F)F)c(NCc3nccnc3N(C)S(C)(=O)=O)n2)cc1 [defactinib]
Summary of the method: as §1

rucaparib = compound: CNCc1ccc(-c2[nH]c3cc(F)cc4c3c2CCNC4=O)cc1 [rucaparib]
Summary of the method: as §1

[8] = compound: CNc1nc(-c2ccc3c(N)n[nH]c3c2)cc(N2C[C@@H](C(=O)NC3CCCCC3)CC[C@H]2C)n1
Summary of the method: as §1

encorafenib = compound: COC(=O)N[C@@H](C)CNc1nccc(-c2cn(C(C)C)nc2-c2cc(Cl)cc(NS(C)(=O)=O)c2F)n1 [encorafenib]
Summary of the method: as §1

[9] = compound: COC(=O)[C@H](CCSC)NC(=O)C1=C(C=C(C=C1)NC[C@H](CS)N)C2=CC=CC=C2
Summary of the method: as §1

epoxomicin = compound: CC[C@H](C)[C@@H](C(=O)N[C@@H]([C@@H](C)O)C(=O)N[C@@H](CC(C)C)C(=O)[C@]1(CO1)C)NC(=O)[C@H]([C@@H](C)CC)N(C)C(=O)C [epoxomicin]
Summary of the method: as §1

sotrastaurin = compound: CN1CCN(c2nc(C3=C(c4c[nH]c5ccccc45)C(=O)NC3=O)c3ccccc3n2)CC1 [sotrastaurin]
Summary of the method: as §1

Tubastatin A = compound: CN1CCc2c(c3ccccc3n2Cc2ccc(C(=O)NO)cc2)C1 [Tubastatin A]
Summary of the method: as §1

[10] = compound: CCn1c(C(=O)N(C2CC2)C2CC2)cc2c3c(ncn3C)c(Nc3cc(C)n(C)n3)nc21
Summary of the method: as §1

alvocidib = compound: CN1CC[C@H](c2c(O)cc(O)c3c(=O)cc(-c4ccccc4Cl)oc23)[C@H](O)C1 [alvocidib]
Summary of the method: as §1

rosiglitazone = compound: CN(CCOC1=CC=C(C=C1)C[C@H]2C(=O)NC(=O)S2)C3=CC=CC=N3 (racemic) [rosiglitazone]
Summary of the method: as §1

Target | log2 fold change [1] | log2 fold change (volasertib) | log2 fold change [2] | log2 fold change [3] | log2 fold change [4] | log2 fold change [5] | log2 fold change [6] | log2 fold change (saracatinib) | log2 fold change [7] | log2 fold change (defactinib) | log2 fold change (rucaparib) | log2 fold change [8] | log2 fold change (encorafenib) | log2 fold change [9] | log2 fold change (epoxomicin) | log2 fold change (sotrastaurin) | log2 fold change (Tubastatin A) | log2 fold change [10] | log2 fold change (alvocidib) | log2 fold change (rosiglitazone)
PPP2R5B (UniProt Q15173) | inactive: -0.348 | inactive: -0.173 | inactive: 0.021 | inactive: 0.015 | inactive: 0.128 | inactive: -0.05 | active: -0.529 | inactive: -0.161 | inactive: -0.064 | inactive: 0.051 | inactive: -0.015 | inactive: -0.043 | inactive: 0.07 | inactive: -0.135 |  |  |  |  |  | 
PRKAR1B (UniProt P31321) | inactive: 0.024 | inactive: -0.054 | inactive: -0.067 | inactive: 0.12 | inactive: -0.001 | inactive: 0.127 | active: 0.43 | inactive: -0.137 | inactive: 0.247 | inactive: 0.117 | inactive: 0.029 | inactive: 0.047 | inactive: 0.056 | inactive: -0.067 | inactive: -0.063 | inactive: -0.02 | inactive: 0.035 |  |  | 
PRG2 (UniProt P13727) | inactive: 0.154 | inactive: 0.161 |  |  | inactive: -0.14 | inactive: 0.041 |  | inactive: -0.066 | inactive: -0.038 | inactive: -0.166 | inactive: 0.036 | inactive: -0.036 | inactive: -0.156 | inactive: -0.054 | inactive: -0.128 |  | inactive: -0.023 | inactive: 0.048 | inactive: 0.1 | 
PPT1 (UniProt P50897) | active: -1.41 | active: -1.9 | inactive: -0.041 | inactive: 0.01 | inactive: -0.009 | inactive: -0.035 | active: -0.925 | inactive: -0.007 | inactive: 0.024 | inactive: 0.024 | inactive: 0.047 | inactive: -0.019 | inactive: -0.023 | inactive: -0.002 | inactive: 0.014 | inactive: 0.029 | inactive: -0.038 |  |  | 
PRKACB isoform 2 (UniProt P22694) | inactive: -0.025 | inactive: -0.031 | inactive: 0.004 | inactive: -0.009 | inactive: -0.048 | inactive: -0.042 | inactive: -0.022 | inactive: -0.013 | inactive: -0.101 | inactive: 0.004 | inactive: 0.002 | inactive: 0.018 | inactive: 0.011 | inactive: 0.022 | inactive: -0.033 | inactive: -0.119 | inactive: -0.035 |  |  | 
PPP1R12A (UniProt O14974) | inactive: -0.136 | active: -0.468 | inactive: 0.066 | inactive: -0.229 | inactive: 0 | inactive: -0.016 | active: -0.536 | inactive: -0.048 | inactive: -0.052 | inactive: -0.187 | inactive: -0.012 | inactive: -0.197 | inactive: 0.057 | inactive: -0.043 | inactive: 0.067 | inactive: -0.054 | inactive: 0.01 |  |  | 
PPP3CA (UniProt Q08209) | inactive: -0.111 | inactive: -0.082 | inactive: 0.013 | inactive: 0.011 | inactive: 0.055 | inactive: -0.05 | inactive: -0.076 | inactive: -0.002 | inactive: -0.062 | inactive: -0.122 | inactive: -0.048 | inactive: -0.087 | inactive: -0.122 | inactive: 0.127 |  | inactive: 0.02 | inactive: -0.067 | inactive: 0.029 | inactive: 0.051 | inactive: 0.063
PPP2R1B (UniProt H0YDG7) | inactive: -0.117 |  | inactive: -0.092 | inactive: 0.044 |  |  | inactive: -0.671 |  |  |  | inactive: 0.158 |  | inactive: -0.224 |  |  | inactive: 0.332 | inactive: 0.086 |  | inactive: 0.117 | inactive: -0.299
PRKCD (UniProt Q05655) | inactive: 0.036 | inactive: -0.073 | inactive: 0.031 | inactive: -0.067 | inactive: -0.009 | inactive: -0.05 | inactive: -0.159 | inactive: -0.026 | inactive: 0.002 | inactive: -0.002 | inactive: -0.031 | inactive: -0.033 | inactive: -0.029 | inactive: -0.024 | inactive: -0.003 | active: -0.256 | inactive: -0.007 |  |  | 
PRKAB2 (UniProt O43741) | inactive: 0.085 | inactive: -0.185 | inactive: 0.022 | inactive: -0.089 | inactive: 0.067 | inactive: 0.043 | inactive: -0.247 | inactive: -0.064 | inactive: -0.159 | inactive: -0.084 | inactive: -0.371 | inactive: -0.022 | inactive: 0.118 | inactive: -0.036 | inactive: 0.205 | inactive: -0.077 | inactive: 0.039 |  |  | 
PROSER3, A0A2R8Y8D9 | inactive: -0.117 |  |  |  |  | inactive: -0.081 |  | inactive: 0.005 |  |  | inactive: 0.081 | inactive: -0.15 | inactive: 0.118 |  | inactive: -0.095 | inactive: -0.06 | inactive: -0.037 |  | inactive: -0.069 | 
PRADC1 (UniProt Q9BSG0) | inactive: -0.32 |  |  | inactive: 0.018 | inactive: -0.027 | inactive: 0 | inactive: 0.139 | inactive: -0.221 |  | inactive: 0.203 | inactive: 0.044 | inactive: 0.22 | inactive: -0.097 | inactive: 0.034 | inactive: -0.065 | inactive: 0.028 | inactive: -0.091 |  | inactive: -0.131 | 
PRKAR2A (UniProt P13861) | inactive: 0.03 | inactive: -0.024 | inactive: 0.046 | inactive: -0.033 | inactive: 0.047 | inactive: 0.077 | inactive: 0.023 | inactive: 0.034 | inactive: 0.027 | inactive: -0.02 | inactive: -0.015 | inactive: -0.04 | inactive: 0.017 | inactive: -0.015 | inactive: -0.031 | inactive: -0.121 | inactive: -0.029 |  |  | 
PRG4 (UniProt Q92954) | inactive: 0.073 |  | inactive: -0.18 | inactive: 0.075 | inactive: -0.239 | inactive: 0.015 | inactive: -0.228 | inactive: 0.008 | inactive: 0.14 | inactive: 0.055 | inactive: -0.072 | inactive: 0.031 | inactive: 0.001 | inactive: -0.109 | inactive: -0.294 | inactive: 0.136 | inactive: 0.004 |  |  | 
PPP1R9A isoform 3 (UniProt Q9ULJ8) | inactive: 0.247 |  | inactive: -0.018 |  | inactive: -0.187 | inactive: 0.135 |  | inactive: -0.065 |  | inactive: 0.079 | inactive: 0.295 | inactive: -0.1 | inactive: 0.121 | inactive: -0.005 | inactive: -0.226 | inactive: 0.092 |  |  |  | inactive: -0.087
PPP2R5C isoform 5 (UniProt Q13362) | inactive: -0.12 | active: -0.429 | inactive: 0.019 | inactive: -0.009 | inactive: -0.023 | inactive: -0.027 | inactive: -0.203 | inactive: 0.007 | inactive: -0.02 | inactive: -0.044 | inactive: -0.019 | inactive: 0.023 | inactive: 0.126 | inactive: -0.042 | inactive: 0.06 | inactive: -0.018 | inactive: 0.014 |  |  | 
PPOX (UniProt P50336) | inactive: -0.134 | inactive: -0.023 | inactive: -0.017 | inactive: -0.052 | inactive: 0.008 | inactive: -0.164 | active: -0.583 | inactive: -0.087 | active: 0.534 | inactive: -0.07 | inactive: -0.059 | inactive: 0.274 | inactive: -0.018 | inactive: -0.01 | inactive: -0.002 | inactive: 0.02 | inactive: -0.045 |  |  | 
PRCP (UniProt P42785) | active: -0.265 | active: -0.291 | inactive: -0.024 | inactive: 0.008 | inactive: 0.014 | inactive: 0.024 | active: -0.389 | inactive: 0.019 | inactive: 0.025 | inactive: -0.009 | inactive: 0.01 | inactive: -0.035 | inactive: 0.007 | inactive: 0.05 | inactive: -0.002 | inactive: 0.054 | inactive: -0.01 |  |  | 
PRKAG1 isoform 3 (UniProt P54619) | inactive: -0.018 | inactive: -0.207 | inactive: 0.048 | inactive: -0.033 | inactive: -0.015 | inactive: -0.009 | active: -0.299 | inactive: -0.016 | inactive: -0.184 | inactive: -0.081 | inactive: -0.005 | inactive: -0.026 | inactive: 0.026 | inactive: -0.014 | inactive: -0.024 | inactive: 0.04 | inactive: 0.01 |  |  | 
PRKAB1 (UniProt Q9Y478) | inactive: -0.079 | active: -0.418 | inactive: 0.045 | inactive: -0.018 | inactive: 0.022 | inactive: -0.026 | inactive: -0.155 | inactive: 0.077 | inactive: -0.117 | inactive: -0.037 | inactive: 0.011 | inactive: -0.02 | inactive: 0.028 | inactive: -0.021 | inactive: 0.055 | inactive: 0 | inactive: 0.087 |  |  | 

In a second layout: results already given
Target	log2 fold change [1]	log2 fold change (volasertib)	log2 fold change [2]	log2 fold change [3]	log2 fold change [4]	log2 fold change [5]	log2 fold change [6]	log2 fold change (saracatinib)	log2 fold change [7]	log2 fold change (defactinib)	log2 fold change (rucaparib)	log2 fold change [8]	log2 fold change (encorafenib)	log2 fold change [9]	log2 fold change (epoxomicin)	log2 fold change (sotrastaurin)	log2 fold change (Tubastatin A)	log2 fold change [10]	log2 fold change (alvocidib)	log2 fold change (rosiglitazone)
PRKAG1 isoform 3 (UniProt P54619)	inactive: -0.018	inactive: -0.207	inactive: 0.048	inactive: -0.033	inactive: -0.015	inactive: -0.009	active: -0.299	inactive: -0.016	inactive: -0.184	inactive: -0.081	inactive: -0.005	inactive: -0.026	inactive: 0.026	inactive: -0.014	inactive: -0.024	inactive: 0.04	inactive: 0.01			
PRKAB1 (UniProt Q9Y478)	inactive: -0.079	active: -0.418	inactive: 0.045	inactive: -0.018	inactive: 0.022	inactive: -0.026	inactive: -0.155	inactive: 0.077	inactive: -0.117	inactive: -0.037	inactive: 0.011	inactive: -0.02	inactive: 0.028	inactive: -0.021	inactive: 0.055	inactive: 0	inactive: 0.087			
